Like-named read-outs stand apart in the source and are kept apart here. Not every detail of the peptide structures is certain; ends, links or a residue may be inferred. Where no end group is shown, it is not given here.
Key:
[1] = system: E^k -restricted murine T cell hybridoma, TPc9.1; experiment: Enhancement of presentation of pigeon cytochrome C(81-104) by fixed CH27 cells to TPc9.1 T hybridoma (IL-2/IL-4, HT-2 indicator); type: cell-based; details: for [3H]thymidine incorporated in the HT-2 indicator assay, (T+APC) + Ii peptide: 50 μM Ii peptide only; for [3H]thymidine incorporated in the HT-2 indicator assay, (T+APC) + Ii peptide / [3H]thymidine incorporated in the HT-2 indicator assay, (T+APC) + Ii peptide + PGCC (81-104): 24 hrs; for [3H]thymidine incorporated in the HT-2 indicator assay, (T+APC) + Ii peptide + PGCC (81-104): 50 μM Ii peptide plus 6 μM pigeon cytochrome C(81-104) peptide
Method: The assay was carried out as follows. 5×10^4 paraformaldehyde-fixed CH27 B lymphoma cells (antigen presenting cells) were incubated in 96-well plates with 5×10^4 TPc9.1 T hybridoma cells (irradiated 2200 rads) for 24 hrs in the presence of: no peptides, 50 μM Ii peptide only, 6 μM pigeon cytochrome C(81-104) peptide only, and 50 μM Ii peptide plus 6 μM pigeon cytochrome C(81-104) peptide. Each condition was assayed in sextuplet. After incubation, the response of the T cell hybridoma was determined by measuring the IL-2/IL-4 secreted during the 24 hr culture. The supernatants were collected and were tested for IL-2/IL-4 content by the ability to support the growth of the IL-2/ IL-4-dependent cell line HT-2 as measured by [^3 H]thymidine incorporation. The values presented in Table V are the CPM×10^-3 incorporated in the HT-2 indicator assay.
The enhancement of responses to pigeon cytochrome C peptide (81-104) by Ii (148-164) and Ii (78-92) was assayed as a function of concentration of the added Ii peptide (Table VI). The values in the Table represent the % enhancement of the pigeon cytochrome C(81-104) peptide-specific, E^k -restricted response by the TPc9.1 murine T cell hybridoma (T) to the peptide presented by paraformaldehyde-fixed CH27 B lymphoma cells (APC). Culture supernatants were collected and were tested for IL-2/IL-4 content by the ability to support the growth of the Il-2/IL-4-dependent cell Line HT-2 as measured by the incorporation of [^3 H]thymidine. The % enhancement was calculated as: [(CPM of T+APC+peptide+Ii peptide / CPM of T+APC+peptide)×100]-100.

[2] = system: E^k -restricted TPc9.1 murine T cell hybridoma cells; experiment: Competitive inhibition of presentation of pigeon cytochrome C(81-104) by fixed CH27 cells to TPc9.1 T hybridoma (IL-2/IL-4, HT-2 indicator); type: cell-based

Sequence: ENLRHLKNTMETLDWKV [Ii (148-164), ENLRHLKNTMETLDWKV]
- enhancement of antigen presentation (in words) [1]: enhanced responses
- [3H]thymidine incorporated in the HT-2 indicator assay, (T+APC) + Ii peptide [1]: 6.9 CPM×10^-3
- [3H]thymidine incorporated in the HT-2 indicator assay, (T+APC) + Ii peptide + PGCC (81-104) [1]: 110.2 CPM×10^-3
- inhibition of antigen presentation (in words) [2]: inhibit antigen presentation

Sequence: LYELQTKLQTLK [LYELQTKLQTLK]
- inhibition of antigen presentation (in words) [2]: inhibit antigen presentation

Sequence: YRMKLPKPPKPVSKMR [Ii (78-92), YRMKLPKPPKPVSKMR]
- enhancement of antigen presentation (in words) [1]: enhanced responses
- [3H]thymidine incorporated in the HT-2 indicator assay, (T+APC) + Ii peptide [1]: 5.9 CPM×10^-3
- [3H]thymidine incorporated in the HT-2 indicator assay, (T+APC) + Ii peptide + PGCC (81-104) [1]: 121.7 CPM×10^-3
- enhancement of antigen presentation (in words) ([1]; listed as Tyr-Ii (78-92)): enhance antigen presentation
